Values quoted from earlier work in patent US10751423B2 (Massachusetts Institute of Technology, priority 2016, dated 2020).
For at least one compound, name, drawing or mass did not settle the structure. Non-standard residues stand in square brackets, D forms with d. Residues, ends and D or L forms follow the SMILES beside them. *: point of attachment. Dolaproine = CO[C@@H]([C@@H]1CCCN1)[C@@H](C)C(=O)O; Dil = CC[C@H](C)[C@H](NC)[C@@H](CC(=O)O)OC; X1 = C[C@@H](N*)[C@@H](O)c1ccccc1; NMeV = CN[C@H](C(=O)O)C(C)C

Details: cited from earlier work

Compound: CC[C@H](C)[C@@H]([C@@H](CC(=O)N1CCC[C@H]1[C@H](OC)[C@@H](C)C(=O)N[C@H](C)[C@@H](O)c1ccccc1)OC)N(C)C(=O)[C@@H](NC(=O)[C@@H](NC)C(C)C)C(C)C [MMAE, monomethyl auristatin E] (H-[NMeV]V[Dil][Dolaproine]-X1)
- potency relative to doxorubicin: 10-100 ×
